{"source": "patent US5882914", "key": {"[1]": {"system": "constitutive W18-binding factor (40-50 kDa DNA-binding subunit) (Homo sapiens)", "assay": "footprint", "conditions": "protein in an extract, variant of W18"}, "[2]": {"system": "HIF-1 in nuclear extract (Homo sapiens)", "assay": "footprint", "conditions": "methylation interference, protein in an extract, variant of W18"}, "[3]": {"system": "constitutive W18-binding factor (40-50 kDa DNA-binding subunit) (Homo sapiens)", "assay": "EMSA", "conditions": "sequence-specific constitutive activity; protein in an extract"}, "[4]": {"system": "HIF-1 in nuclear extract (Homo sapiens)", "assay": "EMSA", "conditions": "induced by CoCl2 or 1% O2; supershifted by anti-HIF-1alpha and anti-HIF-1beta sera; protein in an extract"}}, "note": "At least one result comes from cells or an extract, where the contact may be indirect. For some assays here: No signal at the amounts used counts as a negative. For some assays here: Construct, isoform or probe ends are uncertain for at least one entry. For some assays here: The comparison behind a weaker result is the experiment's own reference, which may not be listed here."}
{"sequence": "GATCGCCCTACGTGCTGTCTCA (double strand) [W18 methylated noncoding G7]", "values": [{"measurement": "binding result", "setting": "[1]; methyl-G at G7 noncoding strand (W18 numbering), methylation interferes with binding", "value": "binds more weakly"}, {"measurement": "binding result", "setting": "[2]; methyl-G at G7 noncoding strand (W18 numbering), binding blocked", "value": "no binding"}]}
{"sequence": "GATCGCCCTACGTGCTGTCTCA (double strand) [W18 methylated coding G8]", "values": [{"measurement": "binding result", "setting": "[2]; methyl-G at G8 coding strand (W18 numbering), binding eliminated", "value": "no binding"}]}
{"sequence": "GATCGCCCTACGTGCTGTCTCA (double strand) [W18 methylated noncoding G11]", "values": [{"measurement": "binding result", "setting": "[1]; methyl-G at G11 noncoding strand (W18 numbering), no methylation interference", "value": "binds"}, {"measurement": "binding result", "setting": "[2]; methyl-G at G11 noncoding strand (W18 numbering), binding blocked", "value": "no binding"}]}
{"sequence": "GATCGCCCTACGTGCTGTCTCA (double strand) [W18]", "values": [{"measurement": "binding result", "setting": "[3]", "value": "binds"}, {"measurement": "binding result", "setting": "[4]", "value": "binds"}]}
{"sequence": "GATCGCCCTACGTGCTGTCTCA (double strand) [W18 methylated coding G10]", "values": [{"measurement": "binding result", "setting": "[1]; methyl-G at G10 coding strand (W18 numbering), partial methylation interference", "value": "binds more weakly"}]}
